According to the supplement of paper PMC10849652:
The list shows a part of the results.

Amino acid sequences for entries named in this document (tags omitted). A change or cut given only in a name is not applied to a line headed by its entry.
UniProt Q9BRN9: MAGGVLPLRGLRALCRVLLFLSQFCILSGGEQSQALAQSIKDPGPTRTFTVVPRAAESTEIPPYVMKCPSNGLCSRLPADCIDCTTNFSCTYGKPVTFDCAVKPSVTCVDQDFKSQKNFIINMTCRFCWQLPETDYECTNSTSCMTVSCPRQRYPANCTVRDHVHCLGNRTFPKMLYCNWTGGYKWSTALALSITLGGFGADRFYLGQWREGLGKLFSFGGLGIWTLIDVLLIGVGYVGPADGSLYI
UniProt Q6PI78: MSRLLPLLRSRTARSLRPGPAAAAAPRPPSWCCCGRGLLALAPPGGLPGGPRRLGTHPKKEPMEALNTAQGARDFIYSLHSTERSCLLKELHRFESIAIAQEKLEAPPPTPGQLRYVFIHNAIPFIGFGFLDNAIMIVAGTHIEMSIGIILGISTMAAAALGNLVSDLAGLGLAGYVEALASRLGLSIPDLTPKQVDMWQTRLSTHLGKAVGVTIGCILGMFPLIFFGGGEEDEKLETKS
UniProt Q8NBN3: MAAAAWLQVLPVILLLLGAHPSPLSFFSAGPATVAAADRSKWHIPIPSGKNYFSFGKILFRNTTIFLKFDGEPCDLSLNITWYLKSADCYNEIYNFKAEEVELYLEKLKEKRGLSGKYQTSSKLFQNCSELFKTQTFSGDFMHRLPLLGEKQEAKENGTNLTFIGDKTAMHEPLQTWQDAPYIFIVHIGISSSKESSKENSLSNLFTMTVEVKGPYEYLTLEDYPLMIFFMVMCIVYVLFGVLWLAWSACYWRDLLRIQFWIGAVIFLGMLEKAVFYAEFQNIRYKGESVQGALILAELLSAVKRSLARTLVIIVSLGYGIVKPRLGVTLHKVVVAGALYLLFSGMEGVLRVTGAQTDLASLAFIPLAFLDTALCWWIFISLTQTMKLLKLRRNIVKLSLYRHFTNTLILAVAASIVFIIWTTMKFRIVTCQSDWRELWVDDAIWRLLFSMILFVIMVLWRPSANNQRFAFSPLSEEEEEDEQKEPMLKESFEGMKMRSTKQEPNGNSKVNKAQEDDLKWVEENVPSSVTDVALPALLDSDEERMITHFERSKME
UniProt P57088: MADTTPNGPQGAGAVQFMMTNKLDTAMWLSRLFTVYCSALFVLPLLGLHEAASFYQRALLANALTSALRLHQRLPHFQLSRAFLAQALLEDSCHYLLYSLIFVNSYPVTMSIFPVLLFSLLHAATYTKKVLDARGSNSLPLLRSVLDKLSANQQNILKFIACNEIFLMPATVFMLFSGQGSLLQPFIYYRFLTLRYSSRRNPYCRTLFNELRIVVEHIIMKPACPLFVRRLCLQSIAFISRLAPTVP
UniProt Q9Y490: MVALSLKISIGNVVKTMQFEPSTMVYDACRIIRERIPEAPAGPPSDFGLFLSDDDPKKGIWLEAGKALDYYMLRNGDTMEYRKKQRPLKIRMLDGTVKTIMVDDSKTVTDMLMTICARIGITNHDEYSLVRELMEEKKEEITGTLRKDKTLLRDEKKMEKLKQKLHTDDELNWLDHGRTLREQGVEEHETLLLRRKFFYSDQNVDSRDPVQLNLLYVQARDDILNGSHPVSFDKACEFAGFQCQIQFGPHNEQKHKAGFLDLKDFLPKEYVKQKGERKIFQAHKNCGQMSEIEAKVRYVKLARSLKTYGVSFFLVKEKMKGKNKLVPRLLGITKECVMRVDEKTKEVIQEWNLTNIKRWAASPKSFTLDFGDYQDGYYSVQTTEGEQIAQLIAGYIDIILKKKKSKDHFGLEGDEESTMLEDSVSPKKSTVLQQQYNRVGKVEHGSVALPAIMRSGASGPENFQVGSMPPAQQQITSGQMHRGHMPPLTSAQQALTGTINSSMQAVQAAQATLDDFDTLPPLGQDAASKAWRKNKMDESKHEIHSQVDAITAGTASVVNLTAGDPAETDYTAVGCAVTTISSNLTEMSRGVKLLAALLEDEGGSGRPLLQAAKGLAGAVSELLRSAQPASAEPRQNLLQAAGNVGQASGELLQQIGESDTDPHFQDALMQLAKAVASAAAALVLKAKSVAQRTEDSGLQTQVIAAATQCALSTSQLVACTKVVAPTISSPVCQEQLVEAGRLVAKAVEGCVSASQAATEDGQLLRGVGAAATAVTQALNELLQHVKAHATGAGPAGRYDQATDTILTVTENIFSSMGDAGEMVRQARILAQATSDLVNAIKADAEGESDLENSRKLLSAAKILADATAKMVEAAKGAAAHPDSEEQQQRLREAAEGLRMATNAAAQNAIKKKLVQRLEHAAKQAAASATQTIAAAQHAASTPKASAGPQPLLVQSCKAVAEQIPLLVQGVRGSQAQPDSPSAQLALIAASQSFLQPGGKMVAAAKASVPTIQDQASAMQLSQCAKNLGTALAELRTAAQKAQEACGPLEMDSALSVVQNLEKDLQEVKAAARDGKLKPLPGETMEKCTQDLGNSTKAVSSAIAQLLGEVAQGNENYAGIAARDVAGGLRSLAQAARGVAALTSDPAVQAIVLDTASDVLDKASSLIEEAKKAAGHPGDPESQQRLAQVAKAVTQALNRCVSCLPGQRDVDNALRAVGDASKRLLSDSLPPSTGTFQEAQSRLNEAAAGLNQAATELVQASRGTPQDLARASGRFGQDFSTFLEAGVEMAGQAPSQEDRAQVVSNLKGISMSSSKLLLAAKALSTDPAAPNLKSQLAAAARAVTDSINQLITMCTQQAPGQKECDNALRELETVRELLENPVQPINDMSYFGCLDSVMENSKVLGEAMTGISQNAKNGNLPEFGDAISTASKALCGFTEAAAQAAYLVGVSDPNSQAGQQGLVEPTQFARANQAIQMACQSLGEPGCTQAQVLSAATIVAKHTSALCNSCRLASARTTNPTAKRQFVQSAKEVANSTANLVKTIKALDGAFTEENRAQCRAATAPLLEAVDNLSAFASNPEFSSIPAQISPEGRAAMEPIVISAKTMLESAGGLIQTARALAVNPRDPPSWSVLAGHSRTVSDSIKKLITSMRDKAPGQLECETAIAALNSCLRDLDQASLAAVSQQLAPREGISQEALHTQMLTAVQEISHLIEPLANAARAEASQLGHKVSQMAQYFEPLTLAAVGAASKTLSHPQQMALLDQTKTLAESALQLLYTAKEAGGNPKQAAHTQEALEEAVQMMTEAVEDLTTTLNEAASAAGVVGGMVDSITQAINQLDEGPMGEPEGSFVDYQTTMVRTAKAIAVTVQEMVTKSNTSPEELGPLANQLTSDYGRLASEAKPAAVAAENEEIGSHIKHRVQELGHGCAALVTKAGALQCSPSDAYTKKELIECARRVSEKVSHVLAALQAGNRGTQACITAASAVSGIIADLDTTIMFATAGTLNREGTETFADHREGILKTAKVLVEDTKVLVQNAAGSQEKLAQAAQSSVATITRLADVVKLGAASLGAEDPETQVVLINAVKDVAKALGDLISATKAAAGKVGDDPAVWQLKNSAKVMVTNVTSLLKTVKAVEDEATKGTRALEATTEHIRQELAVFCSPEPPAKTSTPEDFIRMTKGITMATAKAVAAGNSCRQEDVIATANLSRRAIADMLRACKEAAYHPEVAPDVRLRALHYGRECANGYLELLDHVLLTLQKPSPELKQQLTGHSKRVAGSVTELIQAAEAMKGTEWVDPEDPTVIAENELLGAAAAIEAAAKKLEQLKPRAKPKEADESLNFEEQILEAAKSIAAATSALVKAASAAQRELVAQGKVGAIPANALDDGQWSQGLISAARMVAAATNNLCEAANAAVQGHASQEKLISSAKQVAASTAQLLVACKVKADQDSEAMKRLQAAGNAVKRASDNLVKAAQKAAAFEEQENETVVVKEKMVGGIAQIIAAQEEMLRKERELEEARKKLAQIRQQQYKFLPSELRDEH
UniProt P42167: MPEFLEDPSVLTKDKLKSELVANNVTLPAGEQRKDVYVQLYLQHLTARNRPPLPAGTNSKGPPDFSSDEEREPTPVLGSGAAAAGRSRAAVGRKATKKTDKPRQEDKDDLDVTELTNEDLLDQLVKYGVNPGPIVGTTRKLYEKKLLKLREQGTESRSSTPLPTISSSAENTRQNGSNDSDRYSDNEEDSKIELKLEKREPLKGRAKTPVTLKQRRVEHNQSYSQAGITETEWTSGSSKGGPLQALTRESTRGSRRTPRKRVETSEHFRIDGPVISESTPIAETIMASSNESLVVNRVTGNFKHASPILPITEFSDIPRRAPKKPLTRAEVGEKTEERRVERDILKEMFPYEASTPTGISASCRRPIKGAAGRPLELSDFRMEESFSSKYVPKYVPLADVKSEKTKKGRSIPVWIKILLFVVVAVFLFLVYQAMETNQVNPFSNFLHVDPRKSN
UniProt Q9H0R3: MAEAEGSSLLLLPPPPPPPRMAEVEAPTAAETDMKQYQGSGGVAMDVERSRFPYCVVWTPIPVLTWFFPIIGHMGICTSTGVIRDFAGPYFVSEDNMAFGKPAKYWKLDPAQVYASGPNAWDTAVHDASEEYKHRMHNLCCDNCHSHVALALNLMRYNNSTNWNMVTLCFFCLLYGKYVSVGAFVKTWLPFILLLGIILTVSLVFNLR
UniProt Q9H7F4: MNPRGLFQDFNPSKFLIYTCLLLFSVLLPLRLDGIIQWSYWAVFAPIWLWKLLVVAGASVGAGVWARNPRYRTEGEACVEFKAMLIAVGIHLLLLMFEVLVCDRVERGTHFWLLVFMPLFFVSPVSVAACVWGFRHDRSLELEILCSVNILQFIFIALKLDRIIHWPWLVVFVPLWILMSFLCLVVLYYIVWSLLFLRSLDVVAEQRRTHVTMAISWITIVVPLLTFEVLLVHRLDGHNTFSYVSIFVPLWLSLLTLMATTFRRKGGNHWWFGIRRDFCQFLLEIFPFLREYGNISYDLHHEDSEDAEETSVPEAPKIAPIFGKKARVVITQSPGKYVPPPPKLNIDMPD
UniProt Q9NV96: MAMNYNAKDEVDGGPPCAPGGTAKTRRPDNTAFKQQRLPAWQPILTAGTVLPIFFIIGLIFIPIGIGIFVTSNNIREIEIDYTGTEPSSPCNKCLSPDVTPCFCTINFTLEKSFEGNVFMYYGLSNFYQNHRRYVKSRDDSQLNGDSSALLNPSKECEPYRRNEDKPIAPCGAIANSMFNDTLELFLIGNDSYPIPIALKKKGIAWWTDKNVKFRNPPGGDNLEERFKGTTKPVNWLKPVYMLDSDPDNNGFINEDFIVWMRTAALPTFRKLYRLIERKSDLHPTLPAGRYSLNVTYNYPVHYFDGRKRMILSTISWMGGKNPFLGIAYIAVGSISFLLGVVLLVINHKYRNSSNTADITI
UniProt Q9H0V1: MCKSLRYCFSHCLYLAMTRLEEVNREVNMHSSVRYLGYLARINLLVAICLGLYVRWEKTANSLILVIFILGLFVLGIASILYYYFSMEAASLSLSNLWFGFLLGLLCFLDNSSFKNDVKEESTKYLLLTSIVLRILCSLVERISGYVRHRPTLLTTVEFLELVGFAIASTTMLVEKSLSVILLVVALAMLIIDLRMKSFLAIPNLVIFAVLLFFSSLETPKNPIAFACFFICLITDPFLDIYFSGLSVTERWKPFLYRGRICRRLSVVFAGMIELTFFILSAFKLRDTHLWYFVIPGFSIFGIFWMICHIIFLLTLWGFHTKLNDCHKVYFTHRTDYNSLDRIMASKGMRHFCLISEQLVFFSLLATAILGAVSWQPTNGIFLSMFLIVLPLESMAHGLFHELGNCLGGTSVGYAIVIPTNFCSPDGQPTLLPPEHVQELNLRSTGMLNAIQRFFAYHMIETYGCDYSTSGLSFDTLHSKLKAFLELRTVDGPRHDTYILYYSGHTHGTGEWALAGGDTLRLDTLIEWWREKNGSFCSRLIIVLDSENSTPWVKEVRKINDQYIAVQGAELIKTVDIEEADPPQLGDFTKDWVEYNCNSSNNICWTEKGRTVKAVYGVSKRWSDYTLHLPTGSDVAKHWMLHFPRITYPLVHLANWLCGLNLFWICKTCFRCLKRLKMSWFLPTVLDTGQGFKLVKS
UniProt P63313: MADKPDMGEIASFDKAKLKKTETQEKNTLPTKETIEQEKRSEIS
UniProt Q9NWD8: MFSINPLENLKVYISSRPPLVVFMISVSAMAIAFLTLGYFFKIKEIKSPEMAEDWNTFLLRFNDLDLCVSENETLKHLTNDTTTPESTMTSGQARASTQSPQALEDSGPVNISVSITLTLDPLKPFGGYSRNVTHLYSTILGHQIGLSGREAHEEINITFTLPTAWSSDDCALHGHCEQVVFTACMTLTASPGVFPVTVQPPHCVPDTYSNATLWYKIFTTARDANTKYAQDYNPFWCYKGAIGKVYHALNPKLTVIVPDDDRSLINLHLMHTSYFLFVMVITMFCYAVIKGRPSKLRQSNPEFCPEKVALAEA
UniProt Q9Y3Q3: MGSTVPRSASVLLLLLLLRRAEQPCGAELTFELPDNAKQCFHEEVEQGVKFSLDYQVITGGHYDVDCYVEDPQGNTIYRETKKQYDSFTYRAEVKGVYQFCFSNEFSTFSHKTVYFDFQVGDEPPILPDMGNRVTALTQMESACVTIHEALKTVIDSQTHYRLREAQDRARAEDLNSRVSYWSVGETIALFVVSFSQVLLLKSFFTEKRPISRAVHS
UniProt Q96A57: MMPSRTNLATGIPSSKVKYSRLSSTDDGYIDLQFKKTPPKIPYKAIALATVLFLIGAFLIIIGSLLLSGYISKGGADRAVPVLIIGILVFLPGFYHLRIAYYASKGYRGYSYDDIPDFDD

compound: CN1CC[C@H](c2c(O)cc(O)c3c(=O)cc(-c4ccccc4Cl)oc23)[C@H](O)C1 [alvocidib]; assay: log2 fold change, soluble protein after heating vs DMSO (PISA); higher = thermal stabilisation; K562 cells, 10 uM, 30 min; active = over 0.2 and 3.5 SD of the protein, either way, in both replicates (recomputed)
Method in brief: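 K562 cells at 2×10^6 cells/mL were given 10 μM compound for 30 min. Aliquots then went through 3 min of heating across 48°C-58°C, were pooled, and were extracted in PBS with 0.5% NP-40 at 4°C, and the supernatant after 21,000xg for 90 min was quantified by TMTpro 16plex LC-MS/MS with channel sums equalised. Thermal stability relative to control samples, from duplicates, is given as log2 fold change.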

log2 fold change, inactive:
TMEM245 (UniProt Q9H330) 0.021
TMEM167A (UniProt Q8TBQ9) -0.049
TMOD2 (UniProt Q9NZR1) -0.13
TMED4 (UniProt Q7Z7H5) -0.015
TMEM14C (UniProt Q9P0S9) 0.101
TLN2 (UniProt Q9Y4G6) -0.07
TMEM109 (UniProt Q9BVC6) 0.042
TM2D3 (UniProt Q9BRN9) 0.124
TMEM186 (UniProt Q96B77) -0.113
TMEM141 (UniProt Q96I45) 0.002
TMEM65 (UniProt Q6PI78) 0.056
TMEM87A (UniProt Q8NBN3) 0.037
TMEM33 (UniProt P57088) -0.046
TLN1 (UniProt Q9Y490) -0.058
TNFRSF10B (UniProt O14763) -0.069
TMEM160 (UniProt Q9NX00) 0.131
TM9SF3 (UniProt Q9HD45) -0.107
TMPO isoform 2 (UniProt P42167) -0.008
TMOD3 (UniProt Q9NYL9) 0.009
TMEM222 (UniProt Q9H0R3) -0.186
TMEM185B (UniProt Q9H7F4) 0.09
TMA16 (UniProt Q96EY4) 0.21
TMEM30A (UniProt Q9NV96) 0.01
TMEM68 (UniProt Q96MH6) -0.014
TMCO1 (UniProt Q9UM00) -0.04
TMED2 (UniProt Q15363) -0.008
TMX4 (UniProt Q9H1E5) 0.109
TMEM168 (UniProt Q9H0V1) 0.026
TMPO (UniProt P42166) -0.014
TMEM259 (UniProt Q4ZIN3) -0.027
TMSB10 (UniProt P63313) -0.069
TMEM248 (UniProt Q9NWD8) 0.039
TMED3 (UniProt Q9Y3Q3) -0.02
TMEM209 (UniProt Q96SK2) -0.075
TMEM230 isoform 2 (UniProt Q96A57) -0.056
TMED1 (UniProt Q13445) 0.018
TMPO (UniProt P42167) -0.047
TMEM62 (UniProt Q0P6H9) -0.025
TMEM11 (UniProt P17152) -0.069

Not a retest: an excerpt of the list.
log2 fold change, inactive:
TMEM259 (UniProt Q4ZIN3) -0.027
TMSB10 (UniProt P63313) -0.069
